These are yes or no findings as the source states them, for the method shown. Where a sequence is shown, tags or fusion partners need not be part of it.
Molecular target: Ded1-His6 (S. cerevisiae), P06634
Assay: pull-down; Ded1 bound to protein A Sepharose beads crosslinked to IgG against Ded1, incubated with single purified proteins, washed, eluted; Coomassie-stained SDS PAGE, western blot for Pab1 and Cbp80; same results with or without RNase I or AMP-PNP; both purified
Details: remark: other sources report otherwise

binding: no binding
B1: eIF4A-His6, P10081 1-395 (enzyme)
chain: MSEGITDIEESQIQTNYDKVVYKFDDMELDENLLRGVFGYGFEEPSAIQQRAIMPIIEGHDVLAQAQSGTGKTGTFSIAALQRIDTSVKAPQALMLAPTRELALQIQKVVMALAFHMDIKVHACIGGTSFVEDAEGLRDAQIVVGTPGRVFDNIQRRRFRTDKIKMFILDEADEMLSSGFKEQIYQIFTLLPPTTQVVLLSATMPNDVLEVTTKFMRNPVRILVKKDELTLEGIKQFYVNVEEEEYKYECLTDLYDSISVTQAVIFCNTRRKVEELTTKLRNDKFTVSAIYSDLPQQERDTIMKEFRSGSSRILISTDLLARGIDVQQVSLVINYDLPANKENYIHRIGRGGRFGRKGVAINFVTNEDVGAMRELEKFYSTQIEELPSDIATLLN

Reference: paper PMC4150762, “The DEAD-box helicase Ded1 from yeast is an mRNP cap-associated protein that shuttles between the cytoplasm and nucleus” (Nucleic Acids Research, 2014)
